One compound from EP0314008A2, “N-substituted aliphatic heterocyclic compounds able to facilitate the passage of active substances through physiological barriers” (priority 1987, dated 1989) can be followed below.

The subject of the data set is skin taken from a "nude" mouse. The data set can be described thus: skin permeability test in vitro, skin diffusion cell apparatus, passage of naproxen-Na. As to conditions: compound at 1%, without naproxen - buffer alone.

For the compound `CCCCCCCCCCCC(=O)N1CCSCC1` [Example 3, 4-lauroylthiomorpholide], the “F.U.a. 355.5 nm” value (3.0 hours) is given as 0.004 F.U.a, the “F.U.a. 355.5 nm” value (6.0 hours) worked out at 0.002 F.U.a and the “F.U.a. 355.5 nm” value (7.0 hours) is recorded as 0.002 F.U.a.
